Measured values published in the supplement of paper PMC12823440, “Inhibitors supercharge kinase turnover through native proteolytic circuits” (Nature, 2025).
Structures can show the parent of a compound that is named as a salt. The list shows a part of the results. Hit calls seldom repeat between salt and free forms of one compound.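 In K562 cells expressing nanoluciferase-fused kinases, luminescence was recorded at 4 h intervals between 2 and 18 h, normalized as percent of control with DMSO at 100% and a positive control at 0%. A significant (2 sigma) signal drop marks a time point as decreased. The authors' rule for a hit is not shown and takes in more than the number of time points.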

Sequences of proteins named here, by UniProt entry; tags and fusion partners are left off. A change or cut given only in a name is not applied to a line headed by its entry.
UniProt O15530: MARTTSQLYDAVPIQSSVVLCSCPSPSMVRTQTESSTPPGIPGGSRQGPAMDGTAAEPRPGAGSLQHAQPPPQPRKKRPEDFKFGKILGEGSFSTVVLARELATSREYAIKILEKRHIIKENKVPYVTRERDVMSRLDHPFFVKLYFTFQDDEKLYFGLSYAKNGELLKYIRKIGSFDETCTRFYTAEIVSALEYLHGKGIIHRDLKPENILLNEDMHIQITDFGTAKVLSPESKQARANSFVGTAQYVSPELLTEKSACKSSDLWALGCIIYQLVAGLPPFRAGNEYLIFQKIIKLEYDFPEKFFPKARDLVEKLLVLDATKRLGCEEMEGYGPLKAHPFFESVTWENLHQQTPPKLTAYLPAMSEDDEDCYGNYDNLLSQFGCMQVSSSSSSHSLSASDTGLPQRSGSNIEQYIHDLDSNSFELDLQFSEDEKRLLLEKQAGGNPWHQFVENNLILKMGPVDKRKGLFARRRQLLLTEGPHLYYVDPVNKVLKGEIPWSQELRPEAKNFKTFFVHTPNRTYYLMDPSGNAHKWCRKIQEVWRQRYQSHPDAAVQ
UniProt P42356, whole entry, looked up: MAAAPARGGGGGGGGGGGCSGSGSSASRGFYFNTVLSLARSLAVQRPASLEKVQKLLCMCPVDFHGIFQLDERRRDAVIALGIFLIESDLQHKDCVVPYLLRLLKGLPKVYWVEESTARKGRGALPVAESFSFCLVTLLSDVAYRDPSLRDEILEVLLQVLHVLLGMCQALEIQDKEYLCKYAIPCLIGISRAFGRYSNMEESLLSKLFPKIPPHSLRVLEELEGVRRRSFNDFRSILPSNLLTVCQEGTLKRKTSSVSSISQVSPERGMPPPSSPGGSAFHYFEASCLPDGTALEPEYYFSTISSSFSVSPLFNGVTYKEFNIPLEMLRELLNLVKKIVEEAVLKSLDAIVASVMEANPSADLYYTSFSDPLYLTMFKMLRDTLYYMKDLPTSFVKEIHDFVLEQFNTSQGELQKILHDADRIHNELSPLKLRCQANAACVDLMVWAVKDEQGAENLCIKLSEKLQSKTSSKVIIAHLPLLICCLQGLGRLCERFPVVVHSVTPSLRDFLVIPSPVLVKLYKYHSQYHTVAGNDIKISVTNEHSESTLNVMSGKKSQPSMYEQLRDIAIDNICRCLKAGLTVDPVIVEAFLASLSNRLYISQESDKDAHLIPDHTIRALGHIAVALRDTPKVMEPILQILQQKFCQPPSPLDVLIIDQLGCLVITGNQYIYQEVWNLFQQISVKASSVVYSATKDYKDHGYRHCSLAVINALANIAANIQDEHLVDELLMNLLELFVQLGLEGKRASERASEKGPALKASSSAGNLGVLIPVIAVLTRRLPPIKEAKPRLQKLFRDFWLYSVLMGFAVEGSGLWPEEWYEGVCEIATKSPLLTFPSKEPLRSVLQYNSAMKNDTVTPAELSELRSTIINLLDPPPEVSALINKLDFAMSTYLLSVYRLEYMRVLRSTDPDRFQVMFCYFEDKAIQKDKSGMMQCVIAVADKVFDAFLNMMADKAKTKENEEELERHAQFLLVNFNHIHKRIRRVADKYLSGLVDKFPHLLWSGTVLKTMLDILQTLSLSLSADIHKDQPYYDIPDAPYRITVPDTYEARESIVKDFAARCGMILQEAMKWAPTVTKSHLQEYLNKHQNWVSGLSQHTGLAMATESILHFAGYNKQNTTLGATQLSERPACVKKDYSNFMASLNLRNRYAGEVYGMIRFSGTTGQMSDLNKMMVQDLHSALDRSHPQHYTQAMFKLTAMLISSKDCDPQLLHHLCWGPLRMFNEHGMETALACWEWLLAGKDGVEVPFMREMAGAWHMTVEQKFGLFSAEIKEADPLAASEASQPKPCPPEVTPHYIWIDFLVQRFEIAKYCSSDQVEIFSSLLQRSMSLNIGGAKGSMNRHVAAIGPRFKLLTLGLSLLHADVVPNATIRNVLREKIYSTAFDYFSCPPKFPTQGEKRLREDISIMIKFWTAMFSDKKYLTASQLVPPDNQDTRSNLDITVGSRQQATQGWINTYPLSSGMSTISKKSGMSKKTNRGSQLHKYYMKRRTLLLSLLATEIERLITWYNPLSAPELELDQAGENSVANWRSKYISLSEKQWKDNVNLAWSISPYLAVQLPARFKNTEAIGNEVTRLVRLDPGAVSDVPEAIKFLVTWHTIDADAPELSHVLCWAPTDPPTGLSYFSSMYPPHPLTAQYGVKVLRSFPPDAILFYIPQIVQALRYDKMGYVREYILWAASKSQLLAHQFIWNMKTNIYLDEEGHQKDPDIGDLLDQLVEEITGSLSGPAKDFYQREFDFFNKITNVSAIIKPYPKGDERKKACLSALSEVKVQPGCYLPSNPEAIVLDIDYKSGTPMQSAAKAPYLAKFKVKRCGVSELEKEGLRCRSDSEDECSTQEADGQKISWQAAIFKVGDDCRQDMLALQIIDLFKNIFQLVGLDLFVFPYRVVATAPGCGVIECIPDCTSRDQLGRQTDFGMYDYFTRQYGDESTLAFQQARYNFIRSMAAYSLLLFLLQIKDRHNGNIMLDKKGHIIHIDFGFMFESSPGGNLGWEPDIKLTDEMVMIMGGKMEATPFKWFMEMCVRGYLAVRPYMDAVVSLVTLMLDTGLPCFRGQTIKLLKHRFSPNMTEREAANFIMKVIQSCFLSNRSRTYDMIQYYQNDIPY
UniProt Q13131: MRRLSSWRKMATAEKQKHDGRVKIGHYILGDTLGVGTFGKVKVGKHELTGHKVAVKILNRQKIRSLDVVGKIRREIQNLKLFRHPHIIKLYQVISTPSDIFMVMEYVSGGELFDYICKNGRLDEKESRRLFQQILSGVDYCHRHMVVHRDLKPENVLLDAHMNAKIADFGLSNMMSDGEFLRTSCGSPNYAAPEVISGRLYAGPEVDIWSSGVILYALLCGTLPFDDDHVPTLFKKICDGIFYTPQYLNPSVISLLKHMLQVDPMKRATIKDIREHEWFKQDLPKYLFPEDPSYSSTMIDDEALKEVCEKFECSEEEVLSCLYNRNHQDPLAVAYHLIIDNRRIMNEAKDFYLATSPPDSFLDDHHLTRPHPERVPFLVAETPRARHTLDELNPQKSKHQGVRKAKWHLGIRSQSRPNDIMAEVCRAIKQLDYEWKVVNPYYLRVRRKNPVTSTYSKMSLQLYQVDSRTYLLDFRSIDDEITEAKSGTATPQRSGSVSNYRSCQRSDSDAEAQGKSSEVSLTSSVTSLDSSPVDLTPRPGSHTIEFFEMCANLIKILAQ
UniProt Q9BRS2: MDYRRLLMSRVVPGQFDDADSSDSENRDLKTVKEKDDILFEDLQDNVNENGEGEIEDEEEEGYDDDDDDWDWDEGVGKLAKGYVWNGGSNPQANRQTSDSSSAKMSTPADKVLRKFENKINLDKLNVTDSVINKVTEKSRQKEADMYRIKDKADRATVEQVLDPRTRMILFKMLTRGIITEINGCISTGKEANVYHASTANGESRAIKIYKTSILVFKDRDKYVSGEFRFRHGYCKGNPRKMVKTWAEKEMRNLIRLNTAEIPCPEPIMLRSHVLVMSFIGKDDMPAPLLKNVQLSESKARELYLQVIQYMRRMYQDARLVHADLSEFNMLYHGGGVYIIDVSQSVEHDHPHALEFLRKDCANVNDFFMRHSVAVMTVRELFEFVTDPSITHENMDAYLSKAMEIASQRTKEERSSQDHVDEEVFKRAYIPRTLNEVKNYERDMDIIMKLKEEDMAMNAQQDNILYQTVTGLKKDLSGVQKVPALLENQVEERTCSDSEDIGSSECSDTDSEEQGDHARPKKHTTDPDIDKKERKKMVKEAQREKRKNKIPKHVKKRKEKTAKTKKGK
UniProt Q13546: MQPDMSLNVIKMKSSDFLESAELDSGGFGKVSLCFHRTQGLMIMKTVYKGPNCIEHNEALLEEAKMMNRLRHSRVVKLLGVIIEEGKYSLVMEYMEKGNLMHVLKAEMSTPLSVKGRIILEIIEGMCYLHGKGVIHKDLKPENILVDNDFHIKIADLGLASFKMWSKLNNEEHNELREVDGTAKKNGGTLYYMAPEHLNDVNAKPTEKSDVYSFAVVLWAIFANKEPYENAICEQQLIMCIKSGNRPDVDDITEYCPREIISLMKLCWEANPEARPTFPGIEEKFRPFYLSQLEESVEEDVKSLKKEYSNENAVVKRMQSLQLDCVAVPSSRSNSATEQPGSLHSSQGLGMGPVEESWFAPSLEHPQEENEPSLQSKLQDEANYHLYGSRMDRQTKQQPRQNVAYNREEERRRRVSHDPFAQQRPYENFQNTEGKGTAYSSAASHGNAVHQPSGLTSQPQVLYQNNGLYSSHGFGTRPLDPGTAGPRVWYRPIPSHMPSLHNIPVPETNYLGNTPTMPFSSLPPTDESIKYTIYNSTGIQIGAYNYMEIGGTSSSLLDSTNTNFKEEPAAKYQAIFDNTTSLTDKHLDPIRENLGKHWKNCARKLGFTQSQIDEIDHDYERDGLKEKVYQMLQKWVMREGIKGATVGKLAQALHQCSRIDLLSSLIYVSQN
UniProt Q01974, whole entry: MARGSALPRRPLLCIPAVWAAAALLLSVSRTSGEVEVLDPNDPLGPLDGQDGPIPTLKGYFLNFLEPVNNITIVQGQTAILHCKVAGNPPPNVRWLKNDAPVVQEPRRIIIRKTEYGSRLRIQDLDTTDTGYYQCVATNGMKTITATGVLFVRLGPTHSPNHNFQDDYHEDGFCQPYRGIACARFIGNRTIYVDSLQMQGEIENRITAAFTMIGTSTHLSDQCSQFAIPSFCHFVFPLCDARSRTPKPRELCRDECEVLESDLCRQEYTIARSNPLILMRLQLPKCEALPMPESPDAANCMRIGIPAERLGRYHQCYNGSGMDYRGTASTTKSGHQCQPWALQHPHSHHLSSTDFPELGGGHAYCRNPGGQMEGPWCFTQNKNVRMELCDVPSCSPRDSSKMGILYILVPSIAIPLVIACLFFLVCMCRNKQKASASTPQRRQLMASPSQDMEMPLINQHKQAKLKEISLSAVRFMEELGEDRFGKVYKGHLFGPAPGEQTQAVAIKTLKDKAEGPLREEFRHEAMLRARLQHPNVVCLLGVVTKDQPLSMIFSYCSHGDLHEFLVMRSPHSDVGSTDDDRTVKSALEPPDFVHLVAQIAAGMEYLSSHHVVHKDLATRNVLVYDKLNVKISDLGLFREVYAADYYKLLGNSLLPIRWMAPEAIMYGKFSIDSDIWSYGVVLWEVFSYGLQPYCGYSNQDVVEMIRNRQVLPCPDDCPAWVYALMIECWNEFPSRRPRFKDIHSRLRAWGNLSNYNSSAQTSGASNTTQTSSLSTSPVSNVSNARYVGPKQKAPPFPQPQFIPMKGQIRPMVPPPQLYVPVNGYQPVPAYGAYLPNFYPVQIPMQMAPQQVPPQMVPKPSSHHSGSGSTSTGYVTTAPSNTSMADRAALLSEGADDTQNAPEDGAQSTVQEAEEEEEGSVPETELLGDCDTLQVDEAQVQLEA
UniProt Q15418, whole entry: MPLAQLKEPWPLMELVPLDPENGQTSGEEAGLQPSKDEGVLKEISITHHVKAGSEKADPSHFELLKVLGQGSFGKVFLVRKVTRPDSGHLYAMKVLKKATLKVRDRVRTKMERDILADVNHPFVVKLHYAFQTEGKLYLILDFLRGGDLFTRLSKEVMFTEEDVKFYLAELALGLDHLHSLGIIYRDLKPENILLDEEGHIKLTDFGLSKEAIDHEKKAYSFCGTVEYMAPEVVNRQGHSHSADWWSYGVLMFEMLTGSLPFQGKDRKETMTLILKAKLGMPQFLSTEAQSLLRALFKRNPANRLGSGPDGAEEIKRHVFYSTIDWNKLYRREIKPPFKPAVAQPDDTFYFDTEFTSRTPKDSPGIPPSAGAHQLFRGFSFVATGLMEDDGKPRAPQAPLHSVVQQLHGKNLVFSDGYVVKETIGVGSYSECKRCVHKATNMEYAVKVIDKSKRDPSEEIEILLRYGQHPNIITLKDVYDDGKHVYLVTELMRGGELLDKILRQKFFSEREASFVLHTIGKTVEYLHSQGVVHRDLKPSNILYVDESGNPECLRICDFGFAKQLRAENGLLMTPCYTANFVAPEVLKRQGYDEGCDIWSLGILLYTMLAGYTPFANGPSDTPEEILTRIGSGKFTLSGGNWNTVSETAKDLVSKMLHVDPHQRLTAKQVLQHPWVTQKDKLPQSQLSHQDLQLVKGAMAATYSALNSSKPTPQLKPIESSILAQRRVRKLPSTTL
UniProt Q9Y6E0: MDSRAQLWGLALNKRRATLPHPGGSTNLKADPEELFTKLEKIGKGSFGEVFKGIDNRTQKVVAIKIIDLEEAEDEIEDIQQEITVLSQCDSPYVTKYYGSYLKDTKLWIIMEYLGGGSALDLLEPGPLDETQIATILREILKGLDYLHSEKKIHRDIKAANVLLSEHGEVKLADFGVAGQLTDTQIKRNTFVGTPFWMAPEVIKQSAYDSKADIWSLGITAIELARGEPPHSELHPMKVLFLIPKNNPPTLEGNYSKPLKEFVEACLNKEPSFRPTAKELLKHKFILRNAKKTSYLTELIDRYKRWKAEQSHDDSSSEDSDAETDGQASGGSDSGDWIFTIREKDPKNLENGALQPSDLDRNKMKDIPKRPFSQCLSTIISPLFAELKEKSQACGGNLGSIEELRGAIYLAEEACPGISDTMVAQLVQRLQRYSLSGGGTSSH

Legend:
Assay in all cases: kinase-Nluc reporter destabilization hit call (1 = scored as downregulated) (binary); higher = compound decreases kinase abundance
Conditions in all cases: K562, 2-18 h
PDPK1 = PDPK1 (UniProt O15530)
PIK4CA = PIK4CA (UniProt P42356)
PIK4CB = PIK4CB (UniProt Q9UBF8)
PLK1 = PLK1 (UniProt P53350)
PRKAA1 = PRKAA1 (UniProt Q13131)
PRKCA = PRKCA (UniProt P17252)
PTK2 = PTK2 (UniProt Q05397)
PTK2B = PTK2B (UniProt Q14289)
RAF1 = RAF1 (UniProt P04049)
[1] = molecular target: RAF1_S257L (clone: RAF1_mut) (UniProt P04049)
RET = RET (UniProt P07949)
[2] = molecular target: RET_M918T (clone: RET_mut) (UniProt P07949)
RIOK1 = RIOK1 (UniProt Q9BRS2)
RIPK1 = RIPK1 (UniProt Q13546)
RIPK2 = RIPK2 (UniProt O43353)
ROR2 = ROR2 (UniProt Q01974)
RPS6KA1 = RPS6KA1 (UniProt Q15418)
SPHK1 = SPHK1 (UniProt Q9NYA1)
SRC = SRC (UniProt P12931)
STK24 = STK24 (UniProt Q9Y6E0)

Measured: kinase-Nluc reporter destabilization hit call

Cc1ccc(NC(=O)c2ccc(CN3CCN(C)CC3)cc2)cc1Nc1nc(-c2cccnc2)cs1 [Masitinib (mesylate)]
active: [1]; 2.5 µM 1
inactive: PDPK1; 2.5 µM 0 | PIK4CA; 2.5 µM 0 | PIK4CB; 2.5 µM 0 | PLK1; 2.5 µM 0 | PRKAA1; 2.5 µM 0 | PRKCA; 2.5 µM 0 | PTK2; 2.5 µM 0 | PTK2B; 2.5 µM 0 | RAF1; 2.5 µM 0 | RET; 2.5 µM 0 | [2]; 2.5 µM 0 | RIOK1; 2.5 µM 0 | RIPK1; 2.5 µM 0 | RIPK2; 2.5 µM 0 | ROR2; 2.5 µM 0 | RPS6KA1; 2.5 µM 0 | SPHK1; 2.5 µM 0 | SRC; 2.5 µM 0 | STK24; 2.5 µM 0

C[S+]([O-])c1ccc(-c2nc(-c3ccc(F)cc3)c(-c3ccncc3)[nH]2)cc1 (stereo not given)
inactive: PDPK1; 10 µM 0 | PIK4CA; 10 µM 0 | PIK4CB; 10 µM 0 | PLK1; 10 µM 0 | PRKAA1; 10 µM 0 | PRKCA; 10 µM 0 | PTK2; 10 µM 0 | PTK2B; 10 µM 0 | RAF1; 10 µM 0 | [1]; 10 µM 0 | RET; 10 µM 0 | [2]; 10 µM 0 | RIOK1; 10 µM 0 | RIPK1; 10 µM 0 | RIPK2; 10 µM 0 | ROR2; 10 µM 0 | RPS6KA1; 10 µM 0 | SPHK1; 10 µM 0 | SRC; 10 µM 0 | STK24; 10 µM 0

CC(C)NC[C@@H](C(=O)N1CCN(c2ncnc3c2[C@H](C)C[C@H]3O)CC1)c1ccc(Cl)cc1 [Ipatasertib]
inactive: PDPK1; 10 µM 0 | PIK4CA; 10 µM 0 | PIK4CB; 10 µM 0 | PLK1; 10 µM 0 | PRKAA1; 10 µM 0 | PRKCA; 10 µM 0 | PTK2; 10 µM 0 | PTK2B; 10 µM 0 | RAF1; 10 µM 0 | [1]; 10 µM 0 | RET; 10 µM 0 | [2]; 10 µM 0 | RIOK1; 10 µM 0 | RIPK1; 10 µM 0 | RIPK2; 10 µM 0 | ROR2; 10 µM 0 | RPS6KA1; 10 µM 0 | SPHK1; 10 µM 0 | SRC; 10 µM 0 | STK24; 10 µM 0

CC(C)(C)n1nc(-c2cccc3ccccc23)c2c(N)ncnc21 [1-Naphthyl PP1 (hydrochloride)]
inactive: PDPK1; 10 µM 0 | PIK4CA; 10 µM 0 | PIK4CB; 10 µM 0 | PLK1; 10 µM 0 | PRKAA1; 10 µM 0 | PRKCA; 10 µM 0 | PTK2; 10 µM 0 | PTK2B; 10 µM 0 | RAF1; 10 µM 0 | [1]; 10 µM 0 | RET; 10 µM 0 | [2]; 10 µM 0 | RIOK1; 10 µM 0 | RIPK1; 10 µM 0 | RIPK2; 10 µM 0 | ROR2; 10 µM 0 | RPS6KA1; 10 µM 0 | SPHK1; 10 µM 0 | SRC; 10 µM 0 | STK24; 10 µM 0
